Reference: publication PMC7826843

B1: MCM6 (protein, UniProt Q14566 1-821)
chain: MDLAAAAEPGAGSQHLEVRDEVAEKCQKLFLDFLEEFQSSDGEIKYLQLAEELIRPERNTLVVSFVDLEQFNQQLSTTIQEEFYRVYPYLCRALKTFVKDRKEIPLAKDFYVAFQDLPTRHKIRELTSSRIGLLTRISGQVVRTHPVHPELVSGTFLCLDCQTVIRDVEQQFKYTQPNICRNPVCANRRRFLLDTNKSRFVDFQKVRIQETQAELPRGSIPRSLEVILRAEAVESAQAGDKCDFTGTLIVVPDVSKLSTPGARAETNSRVSGVDGYETEGIRGLRALGVRDLSYRLVFLACCVAPTNPRFGGKELRDEEQTAESIKNQMTVKEWEKVFEMSQDKNLYHNLCTSLFPTIHGNDEVKRGVLLMLFGGVPKTTGEGTSLRGDINVCIVGDPSTAKSQFLKHVEEFSPRAVYTSGKASSAAGLTAAVVRDEESHEFVIEAGALMLADNGVCCIDEFDKMDVRDQVAIHEAMEQQTISITKAGVKATLNARTSILAAANPISGHYDRSKSLKQNINLSAPIMSRFDLFFILVDECNEVTDYAIARRIVDLHSRIEESIDRVYSLDDIRRYLLFARQFKPKISKESEDFIVEQYKHLRQRDGSGVTKSSWRITVRQLESMIRLSEAMARMHCCDEVQPKHVKEAFRLLNKSIIRVETPDVNLDQEEEIQMEVDEGAGGINGHADSPAPVNGINGYNEDINQESAPKASLRLGFSEYCRISNLIVLHLRKVEEEEDESALKRSELVNWYLKEIESEIDSEEELINKKRIIEKVIHRLTHYDHVLIELTQAGLKGSTEGSESYEEDPYLVVNPNYLLED
B2: AT-rich interaction domain 5B (ARID5B) (protein, UniProt Q14865 1-1188)
chain: MEPNSLQWVGSPCGLHGPYIFYKAFQFHLEGKPRILSLGDFFFVRCTPKDPICIAELQLLWEERTSRQLLSSSKLYFLPEDTPQGRNSDHGEDEVIAVSEKVIVKLEDLVKWVHSDFSKWRCGFHAGPVKTEALGRNGQKEALLKYRQSTLNSGLNFKDVLKEKADLGEDEEETNVIVLSYPQYCRYRSMLKRIQDKPSSILTDQFALALGGIAVVSRNPQILYCRDTFDHPTLIENESICDEFAPNLKGRPRKKKPCPQRRDSFSGVKDSNNNSDGKAVAKVKCEARSALTKPKNNHNCKKVSNEEKPKVAIGEECRADEQAFLVALYKYMKERKTPIERIPYLGFKQINLWTMFQAAQKLGGYETITARRQWKHIYDELGGNPGSTSAATCTRRHYERLILPYERFIKGEEDKPLPPIKPRKQENSSQENENKTKVSGTKRIKHEIPKSKKEKENAPKPQDAAEVSSEQEKEQETLISQKSIPEPLPAADMKKKIEGYQEFSAKPLASRVDPEKDNETDQGSNSEKVAEEAGEKGPTPPLPSAPLAPEKDSALVPGASKQPLTSPSALVDSKQESKLCCFTESPESEPQEASFPSFPTTQPPLANQNETEDDKLPAMADYIANCTVKVDQLGSDDIHNALKQTPKVLVVQSFDMFKDKDLTGPMNENHGLNYTPLLYSRGNPGIMSPLAKKKLLSQVSGASLSSSYPYGSPPPLISKKKLIARDDLCSSLSQTHHGQSTDHMAVSRPSVIQHVQSFRSKPSEERKTINDIFKHEKLSRSDPHRCSFSKHHLNPLADSYVLKQEIQEGKDKLLEKRALPHSHMPSFLADFYSSPHLHSLYRHTEHHLHNEQTSKYPSRDMYRESENSSFPSHRHQEKLHVNYLTSLHLQDKKSAAAEAPTDDQPTDLSLPKNPHKPTGKVLGLAHSTTGPQESKGISQFQVLGSQSRDCHPKACRVSPMTMSGPKKYPESLSRSGKPHHVRLENFRKMEGMVHPILHRKMSPQNIGAARPIKRSLEDLDLVIAGKKARAVSPLDPSKEVSGKEKASEQESEGSKAAHGGHSGGGSEGHKLPLSSPIFPGLYSGSLCNSGLNSRLPAGYSHSLQYLKNQTVLSPLMQPLAFHSLVMQRGIFTSPTNSQQLYRHLAAATPVGSSYGDLLHNSIYPLAAINPQAAFPSSQLSSVHPSTKL
B3: Juxtaposed with Another Zinc Finger 1 (JAZF1), endogenous (protein, UniProt Q86VZ6 1-243)
chain: MTGIAAASFFSNTCRFGGCGLHFPTLADLIEHIEDNHIDTDPRVLEKQELQQPTYVALSYINRFMTDAARREQESLKKKIQPKLSLTLSSSVSRGNVSTPPRHSSGSLTPPVTPPITPSSSFRSSTPTGSEYDEEEVDYEESDSDESWTTESAISSEAILSSMCMNGGEEKPFACPVPGCKKRYKNVNGIKYHAKNGHRTQIRVRKPFKCRCGKSYKTAQGLRHHTINFHPPVSAEIIRKMQQ

How the values were obtained:
GFP–H2A.X (human) = GFP–H2A.X (human) (UniProt P16104); test: affinity purification with mass spectrometry; SILAC-labelled HeLa Kyoto cells stably expressing GFP, GFP–H2A, –H2A.X, –H2A.Bbd or –H2A.Z.1; single-step affinity purification of soluble (chromatin-free) nuclear proteins on GFP nanotrap beads; ratio cutoff 4 and 0.25 (forward and reverse)
GFP–H2A.Z.1 (human) = GFP–H2A.Z.1 (human) (UniProt P0C0S5); test: as above

Binder | binding (GFP–H2A.X (human)) | binding (GFP–H2A.Z.1 (human))
B1 | binds | –
B2 | binds | binds
B3 | – | binds

These are yes or no findings as the source states them, for the method shown. In cells and extracts the contact can be indirect. Here binding means that the protein was enriched with, or labelled near, the bait; the list need not be complete.
